Measured values: US20250032647A1, “USE OF MULTIPHOTON EXCITATION FOR FLUORESCENCE IMAGING OF STAINED CALCIFIED MINERALS” (UNIVERSITY OF MARYLAND, BALTIMORE, priority 2022, published 2025)
“And” between values parts separate entries of the source, which are not always exact repeats. Equal entries are not always repeated. At least one structure is not confirmed: it was looked up by name or label, or the drawing left a doubt.

How the values were obtained:
[1] = tissue background 0.4 nsec; cited from earlier work
[2] = Two-photon-excited FLIM of synthetic HAP stained with Cl-tetracycline; type: physicochemical; settings: FIG. 5B; 780 nm two-photon excitation
[3] = cited from earlier work
[4] = cited from earlier work; remark: listed apart in the source

| SMILES | fluorescence lifetime bound to HAP [1] | mean lifetime, two-component fit [2] | maximum of excitation [3] | two-photon excitation cross section [4] |
| --- | --- | --- | --- | --- |
| CN(C)[C@@H]1C(O)=C(C(N)=O)C(=O)[C@@]2(O)C(O)=C3C(=O)c4c(O)ccc(Cl)c4[C@@](C)(O)[C@H]3C[C@@H]12 [chlortetracycline] | 1.6 nsec | 1.31 nsec | – | – |
| C[C@H]1c2cccc(O)c2C(=O)C2=C(O)[C@]3(O)C(=O)C(C(N)=O)=C(O)[C@@H](N(C)C)[C@@H]3[C@@H](O)[C@@H]21 [doxycycline] | 3.8 nsec and 3.7 nsec | – | approximately 390 nm | – |
| CCN(CC)c1ccc2c(-c3ccccc3C(=O)O)c3ccc(=[N+](CC)CC)cc-3oc2c1.[Cl-] [Rhodamine B] | – | – | – | 200 GM |
